# PubChem BioAssay AID743454 – Peter MacCallum Cancer Centre | 2014
# Assay: 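Search for knock-downs that restore vorinostat killing in resistant colon cancer cells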 (primary screen)
# Cells: human HCT116-VR colon cancer cells, selected for vorinostat resistance
# Reagent: siRNA pool against human genes, 40 nM siRNA pool
# Time to read-out: vorinostat for 24 h, read-out about 72 h after transfection
# Conditions: vorinostat at 2.5 µM final
# Read-out: 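Two measures, CellTiter-Fluor viability and luminescent caspase 3/7 activity, each as fold change against same-plate mock wells, mean of duplicates, then screen-wide robust z-score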
# Direction: viability robust z-score: higher = more viable cells than screen typical; caspase robust z-score: higher = more caspase 3/7 activity than screen typical
# Rule for the call: 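a knock-down is a hit when classed RV1 or RV2 for lowered viability, or CA1 or CA2 for caspase activation; those lethal without drug were dropped; hits were retested singly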
# Shown is a random part of about 18,000 reagents. 450 of all reagents (2.5%) were called active. 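Single biological run; no consistent viability z cut-off exists, so the class columns, not z-scores, define the calls.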
gene knocked down,PubChem SID,viability hit class,caspase hit class,viability robust z-score,caspase robust z-score,call
SPINK4,SID134323964,no change,no change,-0.62,-0.24,inactive
DCP1A,SID152156325,no change,no change,-0.12,1.39,inactive
RAMP3,SID152156238,no change,no change,0.24,-1.04,inactive
PCTP,SID135622611,no change,no change,0.78,-0.48,inactive
NXNL2,SID134320092,no change,no change,-0.94,-0.14,inactive
NAGPA,SID152155244,no change,no change,-0.48,0.34,inactive
WBP1,SID134316755,no change,no change,-0.48,2.08,inactive
SLC2A3,SID134312562,no change,no change,1.01,-0.53,inactive
WARS1,SID134313201,no change,no change,-0.59,-0.86,inactive
ADAM19,SID135621070,no change,no change,-0.41,-0.74,inactive
NMS,SID135624309,no change,no change,-0.16,0.5,inactive
ERH,SID134316932,RV2 (reduced viability),no change,-3.6,-0.52,active
ST14,SID152149829,no change,no change,0.02,1.29,inactive
TP73,SID56478652,no change,no change,0.89,-0.58,inactive
ABCB11,SID134312349,no change,no change,1.21,-0.15,inactive
TRIM27,SID152155375,no change,no change,0.68,-0.4,inactive
AVPR1A,SID56478719,no change,no change,-0.2,0.12,inactive
TET2,SID135622608,no change,no change,1.21,0.4,inactive
TMEM258,SID152152273,no change,no change,-1.15,1.84,inactive
HIVEP2,SID152150324,no change,no change,-0.38,1.68,inactive
GNL3L,SID152146980,no change,no change,0.32,2.82,inactive
ZNF35,SID152156170,no change,no change,0.64,0.65,inactive
PAX9,SID152147881,no change,no change,-2.75,-0.64,inactive
SLC47A2,SID152149517,no change,no change,-1.05,0.12,inactive
SMIM15,SID135625458,no change,no change,0.3,-0.63,inactive
PLD2,SID152147084,no change,no change,0.28,-0.41,inactive
CHST7,SID134313315,no change,no change,0.2,-1.1,inactive
LRATD2,SID134315183,no change,no change,-1.64,0.24,inactive
ZNF599,SID135624391,no change,no change,1.39,-0.6,inactive
RRBP1,SID152150156,no change,no change,0.68,-1.11,inactive
LEKR1,SID135624755,no change,no change,-1.4,-0.6,inactive
YIPF4,SID134318937,no change,no change,-0.78,0.23,inactive
CCDC78,SID134322260,no change,no change,-1.06,4.62,inactive
PKP1,SID152147891,no change,no change,0.11,0.14,inactive
TTC8,SID152148813,no change,no change,1.31,0.34,inactive
BBS5,SID152150188,no change,no change,-0.5,0.18,inactive
OR56A4,SID152149264,no change,no change,0.71,0.79,inactive
HERC6,SID152152140,no change,no change,-0.45,-0.82,inactive
CT45A3,SID135625345,no change,no change,0.44,0.18,inactive
CT45A3,SID135625346,no change,no change,0.14,-0.26,inactive
SLC40A1,SID152154091,no change,no change,0.24,-0.97,inactive
FBXO39,SID134320845,no change,no change,-0.29,-0.27,inactive
CHRNA4,SID152147215,no change,no change,-0.77,1.14,inactive
PHLDA1,SID135622312,no change,no change,0.55,1.69,inactive
HPR,SID134313215,no change,no change,-0.7,0.48,inactive
TIGD7,SID134321379,no change,no change,0.41,-0.08,inactive
CFHR5,SID152156173,no change,no change,-2.05,-0.57,inactive
SDHAF2,SID134324470,no change,no change,-0.15,0.7,inactive
LDB3,SID135624555,no change,no change,-0.12,-0.7,inactive
CLUL1,SID134321007,no change,no change,-0.01,-1.08,inactive
STAT5A,SID134310785,no change,no change,-0.4,-0.6,inactive
PLA2G6,SID135621706,no change,no change,0.02,1.07,inactive
MTERF3,SID134320742,no change,no change,1.12,0.09,inactive
C8orf44,SID134324671,no change,no change,-0.88,0.48,inactive
PTMS,SID152150467,no change,no change,1,2.76,inactive
NIP7,SID152152512,no change,no change,-2.09,-0.82,inactive
BAK1,SID152148766,no change,no change,-0.7,-1.27,inactive

Ordered by “viability robust z-score” (low to high): some entries from above.
gene knocked down,PubChem SID,viability hit class,caspase hit class,viability robust z-score,caspase robust z-score,call
WARS1,SID134313201,no change,no change,-0.59,-0.86,inactive
ADAM19,SID135621070,no change,no change,-0.41,-0.74,inactive
NMS,SID135624309,no change,no change,-0.16,0.5,inactive
